Taken from: PubChem BioAssay AID504764 (Drosophila RNAi Screening Center, 2011)
The screen tested about 22,000 reagents; below is an unselected part of those that have a named target and a result. In the full data, 403 (1.9%) were called active. 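Unnormalised raw counts per well; ratio z-scores behind the hit calls and whether each hit raises or lowers signal are not deposited.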 Reagents against one gene are numbered here. Names joined by + are all predicted targets of the reagent. Reagent sequences are not shown. The record does not give: the amount of reagent.

- Aim: 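Genome-wide screen for regulators of Notch-driven gene expression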 (primary screen)
- Cell system: Drosophila Kc167 cells
- Reagent: long dsRNA against Drosophila genes
- Duration: about 5 days (4 days dsRNA, then 24 h after transfection)
- Treatment: transfection of constitutively active membrane-tethered Notch lacking the extracellular domain, read 24 h later
- Read-out: 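Light from a Notch-responsive E(spl)m3 luciferase reporter under active Notch, with control-promoter and no-Notch reporter wells to normalise; raw counts from paired wells a and b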
- Reading the numbers: induced reporter light, run 1, well a and induced reporter light, run 1, well b: higher = more light from the Notch target reporter with active Notch; control promoter light, run 1, well a and control promoter light, run 1, well b: higher = more light from the viral control promoter (cell number, transfection, viability); uninduced reporter light, run 1, well a: higher = more light from the Notch target reporter without active Notch
- Hit rule: 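Wells with low control signal or poorly matching duplicates excluded; duplicates averaged; per source plate, z beyond ±2 for induced/control log2 ratio or beyond ±1.8 for induced/uninduced marks a hit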
- Calls: active = modifier hit (raised or lowered Notch signal); inactive = not a hit

| Gene | dsRNA no. | induced reporter light, run 1, well a | induced reporter light, run 1, well b | control promoter light, run 1, well a | control promoter light, run 1, well b | uninduced reporter light, run 1, well a | Call |
| --- | --- | --- | --- | --- | --- | --- | --- |
| CG9445 (GeneID 50147) | 1 | 1.79e5 | 1.76e5 | 2.93e5 | 2.36e5 | 19892 | inactive |
| CG32160 (retired record) (GeneID 317889) | 1 | – | – | – | – | – | inactive |
| Lhr (GeneID 36957) | 1 | 74505 | 74810 | 1.32e5 | 1.77e5 | 7590 | inactive |
| CR18275 (GeneID 8674032) | 1 | 1.46e5 | 1.36e5 | 2.73e5 | 2.29e5 | 11430 | inactive |
| Smr (GeneID 32225) | 1 | 7050 | 7380 | 8325 | 8375 | 3710 | inactive |
| Smr (GeneID 32225) | 2 | 6735 | 6280 | 10810 | 13525 | 1932 | inactive |
| CG32830 (retired record) (GeneID 318236) | 1 | 6542 | 5865 | 6705 | 6840 | 2742 | inactive |
| Dus3 (GeneID 35264) | 1 | 17542 | 31940 | 52805 | 39775 | 2950 | inactive |
| Ref2 (GeneID 34667) | 1 | 1.77e5 | 2.02e5 | 1.93e5 | 2.05e5 | 16542 | inactive |
| Bet3 (GeneID 39090) | 1 | 1.38e5 | 1.48e5 | 2.25e5 | 2.00e5 | 4385 | inactive |
| dpn (GeneID 35800) | 1 | 1.98e5 | 2.05e5 | 2.29e5 | 2.19e5 | 15055 | inactive |
| CG33523 (GeneID 38668) | 1 | 2.66e5 | 2.39e5 | 2.48e5 | 2.73e5 | 13555 | inactive |
| Scsalpha1 (GeneID 38447) | 1 | 1.58e5 | 1.59e5 | 1.77e5 | 1.02e5 | 18325 | active |
| CG14000 + bchs | 1 | 93565 | 97915 | 83750 | 79865 | 7285 | inactive |
| RpL5 (GeneID 3355124) | 1 | 4070 | 3465 | 5240 | 3880 | 150 | inactive |
| CG15125 (GeneID 37258) | 1 | 33115 | 30495 | 36150 | 38305 | 4880 | inactive |
| CG18417 (GeneID 38829) | 1 | 1.75e5 | 2.16e5 | 1.95e5 | 1.50e5 | 8770 | inactive |
| CG1598 (GeneID 35690) | 1 | 1.31e5 | 1.32e5 | 1.55e5 | 1.65e5 | 12800 | inactive |
| snz (GeneID 31704) | 1 | 1.57e5 | 1.40e5 | 2.39e5 | 3.14e5 | 10600 | inactive |
| Egfrap (GeneID 3885637) | 1 | 2.29e5 | 2.21e5 | 2.53e5 | 2.80e5 | 13110 | inactive |
| Egfrap (GeneID 3885637) | 2 | 1.35e5 | 1.44e5 | 1.94e5 | 2.08e5 | 6620 | inactive |

Called active, among the entries above:
| Gene | dsRNA no. | induced reporter light, run 1, well a | induced reporter light, run 1, well b | control promoter light, run 1, well a | control promoter light, run 1, well b | uninduced reporter light, run 1, well a | Call |
| --- | --- | --- | --- | --- | --- | --- | --- |
| Scsalpha1 (GeneID 38447) | 1 | 1.58e5 | 1.59e5 | 1.77e5 | 1.02e5 | 18325 | active |
